The test in a line: qHTS Assay for Lipid Storage Modulators in Drosophila S3 Cells.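 On cell number change: cells counted by Cell Tracker Red CMTPX staining in the red channel.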 The note with it: BODIPY lipid droplet fluorescence, 18-24 h; for cell number change: measured here: cell count max response, cells fed with added oleic acid. In a few lines: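 Drosophila S3 cells got compounds at several concentrations plus oleic acid (400 uM solution). Laser-scanning cytometry with 488 nm excitation read lipid droplets at 500-530 nm and cells at 575-640 nm. Percent activity was relative to 20 uM Triacsin C.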

The mark [1] stands for this setting: measured here: lipid fluorescence (Fed channel) AC50, cells fed with added oleic acid.
The mark [2] stands for this setting: measured here: cell number channel AC50, cells fed with added oleic acid.

Structures are written as SMILES. This is one part of the list. These are further read-outs of the screen, such as a control signal, another cell line or another target. No call is given for them. Most of these compounds were active or inconclusive in the main read-out, so they are no random draw. The note in brackets gives the kind of curve behind each potency; many fits are weak.

For the compound `O=C(NCc1cccnc1)NC1CCCN1S(=O)(=O)c1ccc(Cl)cc1` (stereo not drawn), the cell number change was determined as 18%. Moreover, under setting [1], the concentration at half-maximal activity (AC50) is 29.1 µM [rising, single point]. `Cc1nn(C)c(C(=O)N/N=C/c2ccncc2)c1Cl`: the cell number change is 7.47%. The AC50 under setting [1] is 2.91 µM [falling, single point].

As to `COc1ccc(NC(=O)CSc2ccc3nnc(CCNC(=O)c4ccccc4)n3n2)cc1`, the concentration at half-maximal activity (AC50) under setting [1] was 29.1 µM [rising, single point]. For the compound `CCCCN(C)C(=S)Nc1ccsc1C(=O)OC`, the cell number change is 14.2%. Further, under setting [2], the AC50 was 2.31 µM [rising, partial curve]. Also, the AC50 under setting [1] was 2.31 µM [rising, partial curve]. Consider `Cc1cccc(OCC(=O)NNC(=O)c2ccc([N+](=O)[O-])cc2)c1`, for which the cell number change was -1.59%. `C=CCn1c(SCC(=O)NCCCO)nc2sc3c(c2c1=O)CCC3`: the cell number change was determined as 2.33%. Under setting [2], the AC50 was 6.51 µM [rising, single point]. Regarding `CCOc1ccc(OCCCC(=O)O)cc1`, the cell number change was -51.3%. Moreover, the AC50 under setting [2] was 3.66 µM [falling, full curve]. Besides, the AC50 under setting [1] is 6.51 µM [falling, single point]. `C=CCNC(=O)/C(C#N)=C/c1c(N2CCCCCC2)nc2ccccn2c1=O`: the cell number change was -2.13%. Also, the AC50 under setting [1] is 16.4 µM [falling, single point].

Take `COC(=O)c1ccccc1NC(=O)Nc1cc(C)cc(C)n1`: the cell number change is -169%. Further, the AC50 under setting [2] was 25.9 µM [falling, partial curve]. The half-maximal activity concentration (AC50) under setting [1] was 23.1 µM [falling, partial curve].

Take `O=C(NNC(=S)NCc1ccccc1)c1ccc(Br)cc1`: the cell number change was found to be 10.9%. As to `COc1ccccc1C(C)NC(=O)c1cc(S(=O)(=O)N2CCCCC2)ccc1C` (stereo not drawn), the cell number change came to 38.4%. Also, the concentration at half-maximal activity (AC50) under setting [1] was 0.82 µM [falling, full curve, poor fit]. As to `CCOC(=O)c1c(C)[nH]c(NC(=O)N2CCOCC2)c1C`, the cell number change was 1.97%. In the case of `CCOC(=O)CCc1c(C)nc2c(c(C)nn2C(C)(C)C)c1C`, the cell number change was -40.9%. Moreover, under setting [2], the concentration at half-maximal activity (AC50) is 14.6 µM [falling, single point]. Also, the half-maximal activity concentration (AC50) under setting [1] is 13 µM [falling, partial curve]. Turning to `Cc1nc2ccc(S(=O)(=O)NCC(=O)N3CCc4ccccc43)cc2s1`, the cell number change worked out at 0.619%. Moreover, the half-maximal activity concentration (AC50) under setting [1] was 16.4 µM [rising, single point].

Regarding `CC(=O)Nc1ccc2c(c1)CCC2=O`, the cell number change is -69.6%. Moreover, the half-maximal activity concentration (AC50) under setting [1] is 20.6 µM [falling, single point].

For `CCOC(=O)c1c(NC(=O)CSc2nnnn2-c2ccccc2)sc2c1CC(C)(C)NC2(C)C`, the cell number change was -39.5%. Also, the concentration at half-maximal activity (AC50) under setting [2] was 20.6 µM [falling, partial curve, poor fit]. Under setting [1], the AC50 was 6.51 µM [rising, partial curve]. `CC(C)(C)c1ccc2c(c1)OCC(C(=O)O)O2` (stereo not drawn): the cell number change is -23.2%. Further, under setting [1], the AC50 was 29.1 µM [falling, single point]. For `O=C(NCCc1ccccc1)c1nc(-c2cccs2)no1`, the AC50 under setting [1] was 6.51 µM [falling, single point]. Take `Cc1nc2cc(N3CCCCC3)c(NC(=O)c3cccnc3)cc2c(=O)n1Cc1ccccc1`: the cell number change was -23.9%. Also, the AC50 under setting [1] is 0.651 µM [rising, partial curve]. As for `O=C(O)C/C(=C\c1ccc(Cl)cc1)c1nc2ccccc2o1`, the cell number change is -27.8%. In addition, the concentration at half-maximal activity (AC50) under setting [1] is 6.51 µM [falling, single point]. Regarding `C/C(=N\NS(=O)(=O)c1ccc(C)c([N+](=O)[O-])c1)c1cccs1`, the cell number change is -4.6%. `CC(C)(C)NS(=O)(=O)c1ccc2[nH]c3c(c2c1)CCCCC3`: the cell number change is -67.6%. The AC50 under setting [1] is 18.4 µM [falling, single point]. With `COC(=O)c1[nH]c2cccc(OC)c2c1NC(=O)CCN1CCSCC1`, the cell number change came out at 19.8%. Besides, under setting [1], the AC50 was 6.51 µM [falling, single point]. Take `COc1cc2ccccc2cc1C(=O)N(CCN(C)C)c1nc2ccc(Br)cc2s1`: the cell number change came to 29.1%. Moreover, under setting [1], the concentration at half-maximal activity (AC50) is 20.6 µM [rising, partial curve, poor fit]. Consider `O=C(NCCCN1CCN(c2ccc(F)cc2)CC1)C1CCCN(c2ncnc3c2nc2n3CCCCC2)C1` (stereo not drawn), for which the cell number change stood at 21.4%. For the same compound, the AC50 under setting [1] was 0.231 µM [rising, full curve]. Regarding `COCCNC(=O)CSc1nnc(-c2ccccc2F)n1Cc1ccccc1`, the cell number change turned out to be 114%. For the same compound, the concentration at half-maximal activity (AC50) under setting [1] was 1.64 µM [falling, partial curve]. For the compound `O=C(Nc1c2c(nn1-c1cccc(Cl)c1)CS(=O)(=O)C2)C1CC1`, the cell number change turned out to be 16.3%. Consider `Cc1c(C)c2cc(Cl)c(OCC(=O)NC3CC(C)(C)NC(C)(C)C3)cc2oc1=O`, for which the cell number change is 36.3%. Moreover, the concentration at half-maximal activity (AC50) under setting [2] was 11.6 µM [rising, single point]. Take `Cc1nc2c(ccc3nc(NC(=O)Cc4ccccc4)sc32)s1`: the cell number change was -31.3%. The AC50 under setting [2] was 29.1 µM [falling, single point]. Besides, under setting [1], the concentration at half-maximal activity (AC50) is 2.06 µM [falling, full curve, poor fit]. Consider `CCN(CC)C(=O)C1=C(C)Nc2ncnn2C1c1cccnc1` (stereo not drawn), for which the cell number change worked out at 11.1%. For the same compound, under setting [1], the AC50 was 0.00461 µM [falling, full curve, poor fit].

For `COc1cc(NC(=O)c2ccco2)c(C(=O)OCC(=O)Nc2ncc(Cl)cc2Cl)cc1OC`, the cell number change stood at 16.5%. For the same compound, under setting [1], the concentration at half-maximal activity (AC50) is 0.731 µM [rising, single point]. As for `Cc1ccccc1NC(=O)C1c2cccc[n+]2CC(=O)N1c1c(C)cccc1C` (stereo not drawn), the cell number change is 2.65%. In addition, under setting [2], the AC50 is 2.06 µM [rising, partial curve, poor fit]. As to `C=CCSc1nnc(CNC(=O)c2ccccc2C)n1C(C)C`, the cell number change is -4.21%. The concentration at half-maximal activity (AC50) under setting [1] is 0.651 µM [falling, single point]. Turning to `COC(=O)CN(c1cccc(C)c1)S(=O)(=O)c1ccccc1`, the cell number change came out at 13.6%. For the same compound, the half-maximal activity concentration (AC50) under setting [2] is 0.206 µM [rising, full curve, poor fit].

On to `Cc1ccc2nc(NC(=O)c3ccccn3)sc2c1`, for which the cell number change is 5.78%. Further, the AC50 under setting [2] was 0.13 µM [rising, full curve, poor fit]. The concentration at half-maximal activity (AC50) under setting [1] is 0.13 µM [rising, full curve, poor fit]. As to `O=C(Nc1c(Cl)cc(Cl)cc1C(=O)NCCN1CCOCC1)c1cccc([N+](=O)[O-])c1`, the AC50 is, setting by setting: under setting [2], 0.00461 µM [rising, full curve, poor fit]; under setting [1], 0.116 µM [rising, full curve, poor fit].

For `Cc1cc(C(=O)N/N=C/c2cc(N=Nc3ccccc3)ccc2O)n[nH]1`, the cell number change is -27.3%. Moreover, under setting [1], the concentration at half-maximal activity (AC50) was 29.1 µM [falling, single point]. Regarding `CCN(CC)c1ccc(CNc2nc3ccccc3n2C)cc1`, the half-maximal activity concentration (AC50) under setting [1] was 3.26 µM [rising, single point]. For `CCOc1ccc(CCNC(=O)c2cnccn2)cc1OCC`, the cell number change is 3.75%. Further, the AC50 under setting [1] is 2.91 µM [falling, partial curve]. Consider `O=C(C1CCN(S(=O)(=O)c2cccc3cccnc23)CC1)N1CCCC1`, for which the cell number change came to 10.6%. Take `CC(=O)Nc1ccc(NC(=O)Nc2cccc3ccccc23)cc1`: the cell number change is -3.81%. Also, the half-maximal activity concentration (AC50) under setting [1] is 29.1 µM [rising, single point]. `CN(C)CCN(Cc1ccco1)S(=O)(=O)c1ccc(-c2ccc(=O)[nH]n2)s1`: the cell number change was -5.5%. Turning to `Cc1cc(F)ccc1NC(=S)NCCc1ccccc1`, the cell number change is -29.2%. The half-maximal activity concentration (AC50) under setting [2] is 6.51 µM [rising, single point]. Regarding `CCSc1ncc(C#N)c(=O)[nH]1`, the cell number change was -30.8%. Moreover, the AC50 under setting [2] was 0.82 µM [falling, full curve]. In addition, under setting [1], the AC50 was 0.92 µM [falling, full curve, poor fit]. Turning to `CCCNC(=O)c1cccc(COCC(F)(F)C(F)F)c1`, the concentration at half-maximal activity (AC50) under setting [1] was 0.082 µM [falling, full curve, poor fit]. For the compound `Cc1sc2ncn(CC(=O)NCCN3CCOCC3)c(=O)c2c1S(=O)(=O)N1CCC(C)CC1`, the AC50 under setting [2] was 2.91 µM [falling, single point].

Take `Cc1cc(N2CCOCC2)n2cc(-c3ccccc3)nc2n1`: the cell number change came out at 2.48%. Turning to `CC1CCCC(NC(=O)CN2C(=O)c3cccnc3Oc3ccc(Cl)cc32)C1C` (stereo not drawn), the cell number change is -7.46%. Also, the AC50 under setting [1] is 29.1 µM [falling, single point]. In the case of `COc1ccc(NC(=O)Cn2c([N+](=O)[O-])cnc2C)cc1Cl`, the cell number change turned out to be 25.2%. Moreover, under setting [2], the half-maximal activity concentration (AC50) was 0.326 µM [rising, full curve, poor fit]. Turning to `CCC(=O)NC1=C(Cl)C(=O)C(NC(=O)CC)=C(Cl)C1=O`, the cell number change is -11.5%. Further, the AC50 under setting [1] was 3.26 µM [falling, full curve]. For `N#Cc1c(N)oc(-c2ccccc2)c1-c1ccccc1`, the cell number change is -7.53%. Under setting [1], the AC50 is 2.31 µM [falling, full curve, poor fit]. For the compound `CCCC1NC(=S)N(C2CCCCC2)C1=O` (stereo not drawn), the cell number change worked out at 33.7%. In addition, the half-maximal activity concentration (AC50) under setting [2] was 9.2 µM [rising, partial curve]. Consider `CCC(c1nnnn1C1CCCC1)N1CCC(C(N)=O)CC1` (stereo not drawn), for which the cell number change is -13.7%. Also, under setting [1], the AC50 is 3.26 µM [falling, single point].

In the case of `CCC(C)(C(=O)NC1CCCCC1)N(Cc1ccco1)C(=O)c1cnccn1` (stereo not drawn), the concentration at half-maximal activity (AC50) under setting [2] is 6.51 µM [rising, partial curve] and the AC50 under setting [1] is 6.51 µM [rising, partial curve].

For the compound `COc1ccc(NC(=O)c2cccc(N3C(=O)C4CC=C(C)CC4C3=O)c2)c(OC)c1` (stereo not drawn), the cell number change worked out at 3.85%. Further, the AC50 under setting [1] was 29.1 µM [rising, single point]. Regarding `CCCOc1ccccc1OCC(=O)Nc1ccc(S(=O)(=O)N2CCCCC2)cc1`, the cell number change was -54%. In addition, the AC50 under setting [2] was 20.6 µM [falling, partial curve]. For the same compound, the half-maximal activity concentration (AC50) under setting [1] is 20.6 µM [falling, partial curve]. Consider `O=C(NCCc1ccccc1C(F)(F)F)C1CCC(=O)N(CCCN2CCCC2=O)C1` (stereo not drawn), for which the cell number change was 0.824%. For the same compound, under setting [1], the half-maximal activity concentration (AC50) was 18.4 µM [falling, single point]. As to `CC(C)CC(=O)Nc1ccc(C(=O)CN2CCN(c3ccc(O)cc3)CC2)cc1`, under setting [1], the half-maximal activity concentration (AC50) was 4.11 µM [falling, full curve]. For `Cc1c(C(=O)C(=O)NCCc2ccc(S(N)(=O)=O)cc2)c2ccccc2n1C`, the cell number change was -13.4%. The half-maximal activity concentration (AC50) under setting [1] is 7.31 µM [rising, partial curve]. As for `CCCCn1c(N)c(N(CC(C)C)C(=O)C2CCN(c3ncnc4sc(C)c(C)c34)CC2)c(=O)[nH]c1=O`, the cell number change came to 93.5%. For the same compound, the AC50 under setting [2] was 13 µM [rising, partial curve].

Turning to `CCOc1ccc(C(=O)CSc2nnc(N)s2)cc1`, the cell number change was found to be 48%. Moreover, the AC50 under setting [2] is 32.6 µM [rising, partial curve, poor fit]. The AC50 under setting [1] is 6.51 µM [falling, single point].

(Values after PubChem BioAssay AID2685 (National Center for Advancing Translational Sciences (NCATS), 2010).)
